# Experimental data as given in PMC5996148.
# This is one part of the list.
# How the values were obtained:
# Test in all cases: protein microarray (ProtoArray v5.0), streptavidin-Alexa Fluor 647
# Settings in all cases: 3'-biotin; 20 mM Tris (pH 7.5), 5 mM MgCl2, 100 mM KCl, 0.1% Tween-20, A/T-rich and random oligonucleotide blockers; temperature not stated; high values mean tight binding
# UGP2 (human) = test system: UGP2 (human)
# ULK4 (human) = test system: ULK4 (human)
# [1] = test system: UPF0417 protein FAM163A (human)
# [2] = test system: UPF0545 protein C22orf39 (human)
# [3] = test system: UPF0546 membrane protein C1orf91 (human)
# [4] = test system: UPF0549 protein C20orf43 homolog (human)
# [5] = test system: UPF0627 protein ENSP00000358171 (human)
# UROS (human) = test system: UROS (human)
# USE1 (human) = test system: USE1 (human)
# USP47 (human) = test system: USP47 (human)
sequence,measurement,setting,value
GGGGACAGGGGTATGGGGAGGGG [G4-3 biotinylated (CtG)],binding signal,UGP2 (human),-0.324 z-score
same,binding signal,ULK4 (human),-0.321 z-score
same,binding signal,[1],-0.335 z-score
same,binding signal,[2],-0.316 z-score
same,binding signal,[3],-0.318 z-score
same,binding signal,[4],-0.323 z-score
same,binding signal,[5],-0.324 z-score
same,binding signal,UROS (human),-0.318 z-score
same,binding signal,USE1 (human),-0.328 z-score
same,binding signal,USP47 (human),-0.326 z-score
